Measurements taken from publication PMC11662665.
Results are given in words; binding and its absence hold for the method and conditions named. In cells and extracts the contact can be indirect. Some entries that bind do so weakly or less than the wild type.

Protein sequences, listed by entry. Tags and fused reporters are not part of them. Lines headed by an entry give the natural chain unless they say otherwise; changes in a name come on top.
UniProt P56546: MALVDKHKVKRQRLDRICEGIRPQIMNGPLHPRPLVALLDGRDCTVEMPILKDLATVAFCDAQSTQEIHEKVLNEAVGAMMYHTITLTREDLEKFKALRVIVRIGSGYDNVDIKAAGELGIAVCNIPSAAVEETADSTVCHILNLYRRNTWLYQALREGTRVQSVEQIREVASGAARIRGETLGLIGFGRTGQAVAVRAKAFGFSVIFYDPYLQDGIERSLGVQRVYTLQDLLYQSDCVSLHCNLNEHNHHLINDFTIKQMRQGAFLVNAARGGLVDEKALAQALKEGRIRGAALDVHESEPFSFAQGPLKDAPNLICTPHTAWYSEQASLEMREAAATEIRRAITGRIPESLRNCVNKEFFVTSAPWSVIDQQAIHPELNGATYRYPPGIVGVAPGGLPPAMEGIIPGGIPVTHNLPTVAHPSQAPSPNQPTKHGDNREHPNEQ

Legend:
[1] = biological target: Ctbp2, endogenous in wild-type mouse ESCs (E14) (mouse (endogenous in E14 mESCs)) (UniProt P56546); test: co-IP; anti-Ctbp2 antibodies; endogenous proteins in lysates of wild-type or S164E KI mESCs, with or without 500 nM ADR for 4 h (also shScr control cells); 25 mM Tris-Cl pH 7.5, 0.1% NP-40, 150 mM NaCl, 10% glycerol, 4 C overnight
[2] = biological target: S164E Ctbp2, knock-in (KI) mouse ESCs (mouse (endogenous in E14 mESCs)) (UniProt P56546); test: as above

binding [1]: binds
binding [2]: binds
B1: Hic2 (protein, UniProt Q9JLZ6 1-619)
chain: MVSGPLALRWCPWAGHRDMGPDMELPSHSKQLLLQLNQQRAKGFLCDVIIMVENSIFRAHKNVLAASSIYFKSLVLHDNLINLDTDMVSSTVFQQILDFIYTGKLLPSDQPSEPNFSTLLTAASYLQLPELAALCRRKLKRAGKPFGPGRVGTAGIGRPTRSQRLSTASVIQARFPGLVDVRKGHPAPQELPQAKGSDDELFLGTSTQESTHGLGLGGPAGGEMGLGGCSTSTNGSSGGCEQELGLDLSKKSPPLPPTTPGPHLTPEDPAQLSDSQRESPAPTSTSALPVGNSASFVELGATPEEPMDVEGAEENHLSLLEGQGGQPRKSLRHSARKKDWNKKEPVAGSPFDRRETGSKGSCPGEEGEGTGDRVPNGVLASSAGGGGPSASYGEQSFPCKEEEENGKDGSEDSGQSGSEGGSGHTGAHYVYRQEGYETVSYGDNVYVCIPCAKGFPSSEQLNAHVETHTEEELFIKEEGAYETGSGGAEEEAEDLSTPSAAYTADSRPFKCSVCEKTYKDPATLRQHEKTHWLTRPFPCNICGKMFTQRGTMTRHMRSHLGLKPFACDECGMRFTRQYRLTEHMRVHSGEKPYECQLCGGKFTQQRNLISHLRMHTSPS
